# No constants are given. Whether binding was seen depends on the method and setting. Some results given as binding are weak or reduced against the parent protein; the word gives no strength.
# T1: TIGIT on the TIGIT-overexpressing Jurkat cell line (Jurkat-TIGIT) (Homo sapiens (Human)) (UniProt Q495A1)
# T1 sequence: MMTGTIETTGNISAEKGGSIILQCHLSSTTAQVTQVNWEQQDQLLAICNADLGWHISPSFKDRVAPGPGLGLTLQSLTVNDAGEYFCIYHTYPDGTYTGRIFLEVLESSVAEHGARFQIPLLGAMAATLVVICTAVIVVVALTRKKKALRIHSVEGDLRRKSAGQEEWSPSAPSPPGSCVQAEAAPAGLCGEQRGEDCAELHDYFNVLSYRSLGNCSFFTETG
# T2: human TIGIT on transfected HEK293 cells (human) (UniProt Q495A1)
# T2 sequence: T1 sequence
# B1: 1F10 (IgG-type anti-TIGIT antibody) (antibody, V domains shown)
# VH: EVQLVESGGGLVKPGGSLRISCAASGFTFSNYNMIWVRQAPGKGLEWVSSISSSASYIYYADSVKGRFTISRDNAKNSLYLQMNSLRAEDTAVYYCARDEGSRDSWNNGPYYYSGMDVWGQGTTVTVSS
# VL: AIQMTQSPSSLSASVGDRVTITCRASQSISRYLNWYQHKPGKAPKLLIYGASSLQSGVPSRFRGSGSGTDFTLTISSLQPEDFATYYCQQSYTTPGAFTFGGGTKVEIKR
# B2: 1E8 (IgG-type anti-TIGIT antibody) (antibody, V domains shown)
# VH: QVQLVQSGTEVKKPGASVKVSCKASGYTFSSYAITWVRQAPGQGLEWMGWISAYNGNTNYAQKLQGRVTMTTDTSTSTAYMELRSLRSDDTAVYYCARVDFWSGYNYFDYWGQGTLVTVSS
# VL: DIQMTQSPSSLSASVGDRVTITCRASQGISNYLAWYQQKPGKVPKVLIYAASTLQSGVPSRFSGSGSGTDFTLTISSLQPEDVATYYCQKSNSAPLTFGGGTKVEIKR
# Key:
# [1] = target: T1, TIGIT on the TIGIT-overexpressing Jurkat cell line (Jurkat-TIGIT) (Homo sapiens (Human)); test: flow cytometry (MFI) on Jurkat-TIGIT cells
# [2] = target: T2, human TIGIT on transfected HEK293 cells (human); test: flow cytometry on HEK293 cells transfected with human TIGIT (GFP-positive cells), antibody 1 ug/5x10^5 cells, PE goat anti-human Fab'2
# [3] = target: T2, human TIGIT on transfected HEK293 cells (human); test: flow cytometry on HEK293 cells transfected with human TIGIT
# [4] = target: human TIGIT-His antigen (human) (UniProt Q495A1); test: Octet (BLI), human TIGIT-HIS on penta-His sensor
Binder,binding [1],binding [2],binding [3],binding [4]
B1,binds,binds,,
B2,binds,,binds,binds

# Reference: patent publication US20220162310A1
